In publication doi:10.1101/2025.04.30.651401:
These are yes or no findings as the source states them, for the method shown. Binding seen in cells or lysates may run through a third protein. Some results given as binding are weak or reduced against the parent protein; the word gives no strength. For some assays here: Sequences can lack the tags named with a protein.

What was measured:
[1] = molecular target: T1, Follistatin-like protein 1 (FSTL1), Flag-tagged (UniProt Q12841); assay: co-IP
T1 sequence: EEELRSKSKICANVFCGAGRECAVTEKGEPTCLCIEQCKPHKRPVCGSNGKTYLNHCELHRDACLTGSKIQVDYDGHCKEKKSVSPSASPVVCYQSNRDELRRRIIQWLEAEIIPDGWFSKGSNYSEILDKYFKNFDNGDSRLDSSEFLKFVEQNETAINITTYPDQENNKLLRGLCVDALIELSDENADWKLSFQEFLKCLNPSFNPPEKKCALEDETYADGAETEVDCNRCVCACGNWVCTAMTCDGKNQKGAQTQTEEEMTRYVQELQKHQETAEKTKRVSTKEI

[2] = molecular target: T2, Follistatin-like protein 1 (FSTL1), endogenous (human (endogenous in HCC cells)) (UniProt Q12841); assay: co-IP
T2 sequence: T1 sequence

B1: Programmed cell death 4 (PDCD4) (protein, UniProt Q53EL6 1-469)
chain: MDVENEQILNVNPADPDNLSDSLFSGDEENAGTEEIKNEINGNWISASSINEARINAKAKRRLRKNSSRDSGRGDSVSDSGSDALRSGLTVPTSPKGRLLDRRSRSGKGRGLPKKGGAGGKGVWGTPGQVYDVEEVDVKDPNYDDDQENCVYETVVLPLDERAFEKTLTPIIQEYFEHGDTNEVAEMLRDLNLGEMKSGVPVLAVSLALEGKASHREMTSKLLSDLCGTVMSTTDVEKSFDKLLKDLPELALDTPRAPQLVGQFIARAVGDGILCNTYIDSYKGTVDCVQARAALDKATVLLSMSKGGKRKDSVWGSGGGQQSVNHLVKEIDMLLKEYLLSGDISEAEHCLKELEVPHFHHELVYEAIIMVLESTGESTFKMILDLLKSLWKSSTITVDQMKRGYERIYNEIPDINLDVPHSYSVLERFVEECFQAGIISKQLRDLCPSRGRKRFVSEGDGGRLKPESY
Question: B1 was tested. Which binding [1] did it give?
Answer: The binding was “binds”.

Question: What about the binding [2] of the same binder?
Answer: The binding was “binds”.
